Experimental data published in article PMC6038584.
Results are given in words; binding and its absence hold for the method and conditions named. In cells and extracts the contact can be indirect. Some entries that bind do so weakly or less than the wild type.

Chains of the proteins cited; added tags and fusions are not shown.
UniProt A2AGL3: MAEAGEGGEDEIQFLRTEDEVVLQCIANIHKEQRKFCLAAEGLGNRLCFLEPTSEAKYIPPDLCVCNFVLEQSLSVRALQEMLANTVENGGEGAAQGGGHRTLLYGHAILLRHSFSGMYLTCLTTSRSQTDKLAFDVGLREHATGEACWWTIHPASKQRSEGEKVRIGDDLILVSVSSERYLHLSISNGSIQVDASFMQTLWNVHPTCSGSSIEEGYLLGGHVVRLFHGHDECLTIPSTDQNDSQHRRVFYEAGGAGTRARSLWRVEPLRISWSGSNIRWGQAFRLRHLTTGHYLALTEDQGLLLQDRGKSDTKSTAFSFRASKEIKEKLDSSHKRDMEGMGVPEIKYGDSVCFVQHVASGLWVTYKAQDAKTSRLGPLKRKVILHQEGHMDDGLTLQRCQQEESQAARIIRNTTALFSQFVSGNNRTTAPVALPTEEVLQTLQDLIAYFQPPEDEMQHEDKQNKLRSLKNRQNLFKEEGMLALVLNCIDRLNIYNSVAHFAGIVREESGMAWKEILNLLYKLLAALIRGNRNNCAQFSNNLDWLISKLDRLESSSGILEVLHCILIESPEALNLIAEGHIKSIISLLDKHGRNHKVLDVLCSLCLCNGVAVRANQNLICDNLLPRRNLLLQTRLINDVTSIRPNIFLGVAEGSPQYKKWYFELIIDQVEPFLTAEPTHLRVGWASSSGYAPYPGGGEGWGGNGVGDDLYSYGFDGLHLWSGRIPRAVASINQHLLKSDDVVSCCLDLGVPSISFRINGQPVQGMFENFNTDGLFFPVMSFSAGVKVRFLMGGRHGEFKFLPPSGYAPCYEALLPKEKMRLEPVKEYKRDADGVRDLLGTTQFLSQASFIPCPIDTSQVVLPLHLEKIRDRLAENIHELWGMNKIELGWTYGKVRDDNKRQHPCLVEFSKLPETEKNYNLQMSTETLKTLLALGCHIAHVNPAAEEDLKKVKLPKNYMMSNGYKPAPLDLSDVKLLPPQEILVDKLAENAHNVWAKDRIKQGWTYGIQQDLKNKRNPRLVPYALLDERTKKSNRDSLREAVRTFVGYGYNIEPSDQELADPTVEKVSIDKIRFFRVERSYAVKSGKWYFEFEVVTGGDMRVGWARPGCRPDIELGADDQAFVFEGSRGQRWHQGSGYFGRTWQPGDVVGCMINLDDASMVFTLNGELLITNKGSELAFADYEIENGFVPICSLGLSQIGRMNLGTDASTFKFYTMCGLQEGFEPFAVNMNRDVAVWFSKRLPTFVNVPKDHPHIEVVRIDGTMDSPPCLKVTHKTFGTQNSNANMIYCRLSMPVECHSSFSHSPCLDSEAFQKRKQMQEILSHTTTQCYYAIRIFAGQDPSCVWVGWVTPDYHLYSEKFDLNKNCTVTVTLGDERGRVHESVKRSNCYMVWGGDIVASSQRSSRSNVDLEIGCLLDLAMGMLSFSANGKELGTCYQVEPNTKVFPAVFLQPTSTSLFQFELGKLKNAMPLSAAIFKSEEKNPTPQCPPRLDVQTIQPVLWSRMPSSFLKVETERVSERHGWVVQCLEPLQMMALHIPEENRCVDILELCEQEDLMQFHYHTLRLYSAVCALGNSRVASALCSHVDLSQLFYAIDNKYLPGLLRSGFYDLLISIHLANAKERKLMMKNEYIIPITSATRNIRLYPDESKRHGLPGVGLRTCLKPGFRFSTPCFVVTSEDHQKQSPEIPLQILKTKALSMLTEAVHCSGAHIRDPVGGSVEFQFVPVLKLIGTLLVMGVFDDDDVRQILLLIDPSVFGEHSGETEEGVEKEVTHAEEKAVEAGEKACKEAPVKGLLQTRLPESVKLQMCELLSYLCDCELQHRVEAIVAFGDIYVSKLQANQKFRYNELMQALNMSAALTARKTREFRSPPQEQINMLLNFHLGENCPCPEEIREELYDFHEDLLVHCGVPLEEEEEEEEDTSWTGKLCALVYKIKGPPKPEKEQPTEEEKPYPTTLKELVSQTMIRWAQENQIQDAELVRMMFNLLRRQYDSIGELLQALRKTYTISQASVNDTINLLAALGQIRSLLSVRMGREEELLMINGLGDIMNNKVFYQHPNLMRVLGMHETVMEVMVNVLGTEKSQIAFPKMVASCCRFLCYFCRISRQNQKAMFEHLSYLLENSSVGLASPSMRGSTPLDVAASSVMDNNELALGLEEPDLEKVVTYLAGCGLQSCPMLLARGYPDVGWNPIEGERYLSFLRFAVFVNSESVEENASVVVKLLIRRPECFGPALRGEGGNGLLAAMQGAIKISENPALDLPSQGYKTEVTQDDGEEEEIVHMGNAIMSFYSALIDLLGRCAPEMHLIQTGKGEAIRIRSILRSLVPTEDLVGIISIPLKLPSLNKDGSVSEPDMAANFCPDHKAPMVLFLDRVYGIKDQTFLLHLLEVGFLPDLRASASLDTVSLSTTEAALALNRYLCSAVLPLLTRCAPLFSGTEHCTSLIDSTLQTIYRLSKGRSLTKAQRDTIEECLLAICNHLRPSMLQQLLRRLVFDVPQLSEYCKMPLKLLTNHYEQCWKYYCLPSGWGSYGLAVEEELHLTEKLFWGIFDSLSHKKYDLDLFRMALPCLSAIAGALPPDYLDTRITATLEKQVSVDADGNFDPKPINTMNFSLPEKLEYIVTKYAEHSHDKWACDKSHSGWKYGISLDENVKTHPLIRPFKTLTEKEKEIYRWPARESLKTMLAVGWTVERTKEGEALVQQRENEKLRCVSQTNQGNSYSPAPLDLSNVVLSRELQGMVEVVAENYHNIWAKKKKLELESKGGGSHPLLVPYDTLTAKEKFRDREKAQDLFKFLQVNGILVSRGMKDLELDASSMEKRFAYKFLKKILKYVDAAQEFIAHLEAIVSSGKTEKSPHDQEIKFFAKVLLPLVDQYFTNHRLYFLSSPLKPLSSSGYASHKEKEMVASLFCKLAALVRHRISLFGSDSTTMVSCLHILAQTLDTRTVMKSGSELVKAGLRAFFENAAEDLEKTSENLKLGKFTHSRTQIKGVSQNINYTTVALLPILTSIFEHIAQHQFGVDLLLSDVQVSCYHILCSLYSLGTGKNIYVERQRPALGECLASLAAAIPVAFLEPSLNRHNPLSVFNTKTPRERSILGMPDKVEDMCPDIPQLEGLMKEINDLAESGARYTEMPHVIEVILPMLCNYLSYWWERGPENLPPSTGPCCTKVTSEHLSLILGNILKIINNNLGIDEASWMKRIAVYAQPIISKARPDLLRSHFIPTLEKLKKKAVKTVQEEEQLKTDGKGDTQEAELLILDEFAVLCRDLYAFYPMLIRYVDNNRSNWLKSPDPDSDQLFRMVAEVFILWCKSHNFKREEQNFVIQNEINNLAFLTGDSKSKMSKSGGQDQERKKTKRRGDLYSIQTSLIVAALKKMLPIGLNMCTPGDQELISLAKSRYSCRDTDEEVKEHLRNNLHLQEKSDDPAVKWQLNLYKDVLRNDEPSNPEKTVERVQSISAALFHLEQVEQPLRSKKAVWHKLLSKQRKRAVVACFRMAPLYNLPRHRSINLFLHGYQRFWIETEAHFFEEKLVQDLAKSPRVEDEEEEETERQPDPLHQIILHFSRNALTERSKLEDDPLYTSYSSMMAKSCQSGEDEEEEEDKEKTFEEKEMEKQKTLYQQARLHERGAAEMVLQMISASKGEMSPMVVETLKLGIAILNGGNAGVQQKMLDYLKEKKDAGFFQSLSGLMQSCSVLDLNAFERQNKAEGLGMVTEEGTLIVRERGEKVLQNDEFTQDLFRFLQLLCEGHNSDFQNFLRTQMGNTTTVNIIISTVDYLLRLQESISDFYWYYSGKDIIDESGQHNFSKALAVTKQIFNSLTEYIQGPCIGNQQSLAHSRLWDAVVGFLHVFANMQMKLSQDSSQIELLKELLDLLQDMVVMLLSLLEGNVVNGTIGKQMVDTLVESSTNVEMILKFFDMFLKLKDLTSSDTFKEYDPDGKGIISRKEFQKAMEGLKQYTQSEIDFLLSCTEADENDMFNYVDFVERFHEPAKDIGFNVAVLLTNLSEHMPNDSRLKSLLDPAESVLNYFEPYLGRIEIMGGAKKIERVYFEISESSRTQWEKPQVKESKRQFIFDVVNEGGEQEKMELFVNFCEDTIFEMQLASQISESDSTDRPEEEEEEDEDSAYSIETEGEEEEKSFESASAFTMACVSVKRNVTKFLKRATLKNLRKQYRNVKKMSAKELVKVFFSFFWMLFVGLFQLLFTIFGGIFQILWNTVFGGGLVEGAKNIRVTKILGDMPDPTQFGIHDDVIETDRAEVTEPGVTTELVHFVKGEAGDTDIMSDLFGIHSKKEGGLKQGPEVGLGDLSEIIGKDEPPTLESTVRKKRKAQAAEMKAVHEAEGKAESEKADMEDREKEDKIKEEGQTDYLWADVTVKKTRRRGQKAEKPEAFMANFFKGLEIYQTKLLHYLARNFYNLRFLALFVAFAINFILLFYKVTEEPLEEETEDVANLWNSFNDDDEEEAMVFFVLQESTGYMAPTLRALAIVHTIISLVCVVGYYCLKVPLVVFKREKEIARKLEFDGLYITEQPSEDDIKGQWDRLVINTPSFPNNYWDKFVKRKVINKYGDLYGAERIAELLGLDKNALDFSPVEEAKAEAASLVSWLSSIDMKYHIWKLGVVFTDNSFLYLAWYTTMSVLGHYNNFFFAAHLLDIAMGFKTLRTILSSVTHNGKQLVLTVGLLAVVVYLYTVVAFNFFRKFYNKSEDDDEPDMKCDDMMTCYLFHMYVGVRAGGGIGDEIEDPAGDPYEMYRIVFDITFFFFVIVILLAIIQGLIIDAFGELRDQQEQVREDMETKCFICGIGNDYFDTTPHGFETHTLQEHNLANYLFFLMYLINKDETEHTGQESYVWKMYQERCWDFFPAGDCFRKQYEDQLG
UniProt Q9Z2I2: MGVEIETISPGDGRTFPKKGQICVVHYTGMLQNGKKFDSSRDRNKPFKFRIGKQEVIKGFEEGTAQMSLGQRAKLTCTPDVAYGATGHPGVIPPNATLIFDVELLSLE

Target: ryanodine receptor 3 (mouse (endogenous in HT-22)) (UniProt A2AGL3)
Assay: co-IP; HT-22 cell lysate (Triton X-100, 100 mmol/l NaCl, 50 mmol/l Tris HCl, 10 mmol/l EDTA); antibody against RyR with protein-G agarose, 12 hours; immunoblot for FKBP12.6; cells control, hypoxia-reoxygenation (H/R), or H/R after propofol pretreatment (different concentrations, 2 hr)

Substance: FK506-binding protein 12.6 (from UniProt Q9Z2I2 1-108)
- binding: binds
